In doi:10.64898/2025.12.12.694012:
Where two headings read alike, the source gives them in different places. No constants are given. Whether binding was seen depends on the method and setting. In cells and extracts the contact can be indirect. Some entries that bind do so weakly or less than the wild type. For some assays here: Sequences can lack the tags named with a protein. Values belong to the molecule of their own block, whether it stands above or below them.

The chains behind the UniProt entries cited, without tags or fusion partners.
UniProt Q13547: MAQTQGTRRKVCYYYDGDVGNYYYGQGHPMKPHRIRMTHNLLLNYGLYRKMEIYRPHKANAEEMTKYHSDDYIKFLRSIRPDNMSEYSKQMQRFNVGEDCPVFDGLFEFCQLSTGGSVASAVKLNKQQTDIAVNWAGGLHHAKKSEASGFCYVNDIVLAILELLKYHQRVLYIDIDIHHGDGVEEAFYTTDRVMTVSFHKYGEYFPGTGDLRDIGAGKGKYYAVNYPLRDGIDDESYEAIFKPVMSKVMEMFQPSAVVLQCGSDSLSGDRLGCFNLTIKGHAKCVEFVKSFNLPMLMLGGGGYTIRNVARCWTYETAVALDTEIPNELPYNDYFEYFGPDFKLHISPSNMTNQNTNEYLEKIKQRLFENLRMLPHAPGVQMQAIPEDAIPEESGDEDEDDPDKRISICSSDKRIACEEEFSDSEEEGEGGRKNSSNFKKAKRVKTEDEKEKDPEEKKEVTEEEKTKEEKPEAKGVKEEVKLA
UniProt Q9BUI4: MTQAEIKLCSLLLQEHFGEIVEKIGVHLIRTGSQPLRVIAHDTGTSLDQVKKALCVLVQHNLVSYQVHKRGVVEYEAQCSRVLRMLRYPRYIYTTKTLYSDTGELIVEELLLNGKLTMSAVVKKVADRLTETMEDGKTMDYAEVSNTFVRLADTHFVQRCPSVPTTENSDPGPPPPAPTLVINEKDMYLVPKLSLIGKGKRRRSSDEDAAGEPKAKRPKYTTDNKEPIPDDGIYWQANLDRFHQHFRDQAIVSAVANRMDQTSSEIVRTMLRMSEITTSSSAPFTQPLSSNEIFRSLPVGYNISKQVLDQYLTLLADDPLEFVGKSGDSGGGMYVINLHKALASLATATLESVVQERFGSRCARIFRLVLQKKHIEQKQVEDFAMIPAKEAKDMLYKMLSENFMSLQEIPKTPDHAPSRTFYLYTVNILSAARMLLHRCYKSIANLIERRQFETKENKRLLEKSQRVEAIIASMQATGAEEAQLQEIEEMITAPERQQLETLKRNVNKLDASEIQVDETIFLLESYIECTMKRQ
UniProt O15318: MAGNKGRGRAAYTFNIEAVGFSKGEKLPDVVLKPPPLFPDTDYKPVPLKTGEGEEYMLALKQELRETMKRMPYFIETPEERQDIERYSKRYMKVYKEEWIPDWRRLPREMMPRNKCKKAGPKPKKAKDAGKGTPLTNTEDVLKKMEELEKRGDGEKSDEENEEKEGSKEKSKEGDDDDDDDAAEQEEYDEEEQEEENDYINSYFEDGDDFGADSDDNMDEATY

Columns and labels:
Test in all cases: co-IP
[1] = target: Flag-tagged NuRD subunit HDAC1 (UniProt Q13547)
[2] = target: Flag-tagged NuRD subunit HDAC1 (UniProt Q13547); remark: listed apart in the source
[3] = target: flag-tagged RPC3 (POLR3C) (UniProt Q9BUI4)
[4] = target: T1, flag-tagged RPC7β (POLR3GL) (UniProt Q9BT43)
T1 sequence: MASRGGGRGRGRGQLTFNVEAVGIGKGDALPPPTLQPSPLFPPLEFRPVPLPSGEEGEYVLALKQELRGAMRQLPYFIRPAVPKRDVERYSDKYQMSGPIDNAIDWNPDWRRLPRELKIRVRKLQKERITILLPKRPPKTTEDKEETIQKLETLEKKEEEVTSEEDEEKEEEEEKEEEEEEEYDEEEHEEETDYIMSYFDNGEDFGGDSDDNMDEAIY

[5] = target: flag-tagged RPC7α (POLR3G) (UniProt O15318)

B2: RPC2 (POLR3B), endogenous (protein, UniProt Q9NW08 1-1133)
chain: MDVLAEEFGNLTPEQLAAPIPTVEEKWRLLPAFLKVKGLVKQHIDSFNYFINVEIKKIMKANEKVTSDADPMWYLKYLNIYVGLPDVEESFNVTRPVSPHECRLRDMTYSAPITVDIEYTRGSQRIIRNALPIGRMPIMLRSSNCVLTGKTPAEFAKLNECPLDPGGYFIVKGVEKVILIQEQLSKNRIIVEADRKGAVGASVTSSTHEKKSRTNMAVKQGRFYLRHNTLSEDIPIVIIFKAMGVESDQEIVQMIGTEEHVMAAFGPSLEECQKAQIFTQMQALKYIGNKVRRQRMWGGGPKKTKIEEARELLASTILTHVPVKEFNFRAKCIYTAVMVRRVILAQGDNKVDDRDYYGNKRLELAGQLLSLLFEDLFKKFNSEMKKIADQVIPKQRAAQFDVVKHMRQDQITNGMVNAISTGNWSLKRFKMDRQGVTQVLSRLSYISALGMMTRISSQFEKTRKVSGPRSLQPSQWGMLCPSDTPEGEACGLVKNLALMTHITTDMEDGPIVKLASNLGVEDVNLLCGEELSYPNVFLVFLNGNILGVIRDHKKLVNTFRLMRRAGYINEFVSISTNLTDRCVYISSDGGRLCRPYIIVKKQKPAVTNKHMEELAQGYRNFEDFLHESLVEYLDVNEENDCNIALYEHTINKDTTHLEIEPFTLLGVCAGLIPYPHHNQSPRNTYQCAMGKQAMGTIGYNQRNRIDTLMYLLAYPQKPMVKTKTIELIEFEKLPAGQNATVAVMSYSGYDIEDALVLNKASLDRGFGRCLVYKNAKCTLKRYTNQTFDKVMGPMLDAATRKPIWRHEILDADGICSPGEKVENKQVLVNKSMPTVTQIPLEGSNVPQQPQYKDVPITYKGATDSYIEKVMISSNAEDAFLIKMLLRQTRRPEIGDKFSSRHGQKGVCGLIVPQEDMPFCDSGICPDIIMNPHGFPSRMTVGKLIELLAGKAGVLDGRFHYGTAFGGSKVKDVCEDLVRHGYNYLGKDYVTSGITGEPLEAYIYFGPVYYQKLKHMVLDKMHARARGPRAVLTRQPTEGRSRDGGLRLGEMERDCLIGYGASMLLLERLMISSDAFEVDVCGQCGLLGYSGWCHYCKSSCHVSSLRIPYACKLLFQELQSMNIIPRLKLSKYNE
binding [2]: binds

B3: RPC1 (POLR3A), endogenous (protein, UniProt O14802 1-1390)
chain: MVKEQFRETDVAKKISHICFGMKSPEEMRQQAHIQVVSKNLYSQDNQHAPLLYGVLDHRMGTSEKDRPCETCGKNLADCLGHYGYIDLELPCFHVGYFRAVIGILQMICKTCCHIMLSQEEKKQFLDYLKRPGLTYLQKRGLKKKISDKCRKKNICHHCGAFNGTVKKCGLLKIIHEKYKTNKKVVDPIVSNFLQSFETAIEHNKEVEPLLGRAQENLNPLVVLNLFKRIPAEDVPLLLMNPEAGKPSDLILTRLLVPPLCIRPSVVSDLKSGTNEDDLTMKLTEIIFLNDVIKKHRISGAKTQMIMEDWDFLQLQCALYINSELSGIPLNMAPKKWTRGFVQRLKGKQGRFRGNLSGKRVDFSGRTVISPDPNLRIDEVAVPVHVAKILTFPEKVNKANINFLRKLVQNGPEVHPGANFIQQRHTQMKRFLKYGNREKMAQELKYGDIVERHLIDGDVVLFNRQPSLHKLSIMAHLARVKPHRTFRFNECVCTPYNADFDGDEMNLHLPQTEEAKAEALVLMGTKANLVTPRNGEPLIAAIQDFLTGAYLLTLKDTFFDRAKACQIIASILVGKDEKIKVRLPPPTILKPVTLWTGKQIFSVILRPSDDNPVRANLRTKGKQYCGKGEDLCANDSYVTIQNSELMSGSMDKGTLGSGSKNNIFYILLRDWGQNEAADAMSRLARLAPVYLSNRGFSIGIGDVTPGQGLLKAKYELLNAGYKKCDEYIEALNTGKLQQQPGCTAEETLEALILKELSVIRDHAGSACLRELDKSNSPLTMALCGSKGSFINISQMIACVGQQAISGSRVPDGFENRSLPHFEKHSKLPAAKGFVANSFYSGLTPTEFFFHTMAGREGLVDTAVKTAETGYMQRRLVKSLEDLCSQYDLTVRSSTGDIIQFIYGGDGLDPAAMEGKDEPLEFKRVLDNIKAVFPCPSEPALSKNELILTTESIMKKSEFLCCQDSFLQEIKKFIKGVSEKIKKTRDKYGINDNGTTEPRVLYQLDRITPTQVEKFLETCRDKYMRAQMEPGSAVGALCAQSIGEPGTQMTLKTFHFAGVASMNITLGVPRIKEIINASKAISTPIITAQLDKDDDADYARLVKGRIEKTLLGEISEYIEEVFLPDDCFILVKLSLERIRLLRLEVNAETVRYSICTSKLRVKPGDVAVHGEAVVCVTPRENSKSSMYYVLQFLKEDLPKVVVQGIPEVSRAVIHIDEQSGKEKYKLLVEGDNLRAVMATHGVKGTRTTSNNTYEVEKTLGIEAARTTIINEIQYTMVNHGMSIDRRHVMLLSDLMTYKGEVLGITRFGLAKMKESVLMLASFEKTADHLFDAAYFGQKDSVCGVSECIIMGIPMNIGTGLFKLLHKADRDPNPPKRPLIFDTNEFHIPLVT
binding [3]: binds
binding [4]: binds
binding [5]: binds
binding [2]: binds

B4: RPC4 (POLR3D), endogenous (protein, UniProt P05423 1-398)
chain: MSEGNAAGEPSTPGGPRPLLTGARGLIGRRPAPPLTPGRLPSIRSRDLTLGGVKKKTFTPNIISRKIKEEPKEEVTVKKEKRERDRDRQREGHGRGRGRPEVIQSHSIFEQGPAEMMKKKGNWDKTVDVSDMGPSHIINIKKEKRETDEETKQILRMLEKDDFLDDPGLRNDTRNMPVQLPLAHSGWLFKEENDEPDVKPWLAGPKEEDMEVDIPAVKVKEEPRDEEEEAKMKAPPKAARKTPGLPKDVSVAELLRELSLTKEEELLFLQLPDTLPGQPPTQDIKPIKTEVQGEDGQVVLIKQEKDREAKLAENACTLADLTEGQVGKLLIRKSGRVQLLLGKVTLDVTMGTACSFLQELVSVGLGDSRTGEMTVLGHVKHKLVCSPDFESLLDHKHR
binding [2]: binds

Further lines, results first:

binding [1]: binds
Molecule: RPC3 (POLR3C), endogenous (from UniProt Q9BUI4 1-534)

binding [2]: binds
B1: RPC5 (POLR3E), endogenous (protein, UniProt Q9NVU0 1-708)
chain: MANEEDDPVVQEIDVYLAKSLAEKLYLFQYPVRPASMTYDDIPHLSAKIKPKQQKVELEMAIDTLNPNYCRSKGEQIALNVDGACADETSTYSSKLMDKQTFCSSQTTSNTSRYAAALYRQGELHLTPLHGILQLRPSFSYLDKADAKHREREAANEAGDSSQDEAEDDVKQITVRFSRPESEQARQRRVQSYEFLQKKHAEEPWVHLHYYGLRDSRSEHERQYLLCPGSSGVENTELVKSPSEYLMMLMPPSQEEEKDKPVAPSNVLSMAQLRTLPLADQIKILMKNVKVMPFANLMSLLGPSIDSVAVLRGIQKVAMLVQGNWVVKSDILYPKDSSSPHSGVPAEVLCRGRDFVMWKFTQSRWVVRKEVATVTKLCAEDVKDFLEHMAVVRINKGWEFILPYDGEFIKKHPDVVQRQHMLWTGIQAKLEKVYNLVKETMPKKPDAQSGPAGLVCGDQRIQVAKTKAQQNHALLERELQRRKEQLRVPAVPPGVRIKEEPVSEEGEEDEEQEAEEEPMDTSPSGLHSKLANGLPLGRAAGTDSFNGHPPQGCASTPVARELKAFVEATFQRQFVLTLSELKRLFNLHLASLPPGHTLFSGISDRMLQDTVLAAGCKQILVPFPPQTAASPDEQKVFALWESGDMSDQHRQVLLEIFSKNYRVRRNMIQSRLTQECGEDLSKQEVDKVLKDCCVSYGGMWYLKGTVQS
